# Measurements as given in patent publication US7128898B2, “Method of minimizing cell lysis and toothpaste and mouthwash with reduced irritancy” (priority 1999, dated 2006).
# Key:
# [1] = tested on: Streptococcus mutans (ATCC 35668); test: Mouthwash antimicrobial effectiveness, timed exposure and plating; type: cell-based
# Experimental: (§1) Three mouthwash test preparations were evaluated for antimicrobial properties against Candida albicans and Streptococcus mutans. Cell suspensions of each organism were exposed to three mouthwash preparations, separately, over multiple timepoints; plated on blood agar (BAP); incubated at 35° C.; and colony counts recorded at 24 and 48 hours respectively. […] McFarland cell suspensions of C. albicans and S. mutans (ATCC 35668) were made in tryptone yeast extract broth (Sensibroth) yielding, approximate cell densities of 1.5×10^8 cells/ml. 50 μl of each organism were plated as a growth control. […] C albicans plates were incubated in oxygen at 35 degrees Centigrade. S. mutans plates were incubated in carbon dioxide at 35 degrees Centigrade.
# Candida albicans = test: as above; type: cell-based
# Experimental: as §1
structure (smiles),measurement,setting,value
"CCCCCCCCCCCCCCCC[n+]1ccccc1 [CPC, Cetylpyridinium Chloride]",exposure at which S. mutans is effectively killed,[1],≤ 10 s
same,exposure at which C. albicans is effectively killed,Candida albicans,≤ 10 s
